According to patent WO2019077951A1 (dated 2019):
These are yes or no findings as the source states them, for the method shown. Some entries that bind do so weakly or less than the wild type.

By UniProt entry, the sequences of proteins in these tests, tags left out. Where a name states a change or a piece, a line headed by the entry shows the natural chain unless it says otherwise.
UniProt P15941: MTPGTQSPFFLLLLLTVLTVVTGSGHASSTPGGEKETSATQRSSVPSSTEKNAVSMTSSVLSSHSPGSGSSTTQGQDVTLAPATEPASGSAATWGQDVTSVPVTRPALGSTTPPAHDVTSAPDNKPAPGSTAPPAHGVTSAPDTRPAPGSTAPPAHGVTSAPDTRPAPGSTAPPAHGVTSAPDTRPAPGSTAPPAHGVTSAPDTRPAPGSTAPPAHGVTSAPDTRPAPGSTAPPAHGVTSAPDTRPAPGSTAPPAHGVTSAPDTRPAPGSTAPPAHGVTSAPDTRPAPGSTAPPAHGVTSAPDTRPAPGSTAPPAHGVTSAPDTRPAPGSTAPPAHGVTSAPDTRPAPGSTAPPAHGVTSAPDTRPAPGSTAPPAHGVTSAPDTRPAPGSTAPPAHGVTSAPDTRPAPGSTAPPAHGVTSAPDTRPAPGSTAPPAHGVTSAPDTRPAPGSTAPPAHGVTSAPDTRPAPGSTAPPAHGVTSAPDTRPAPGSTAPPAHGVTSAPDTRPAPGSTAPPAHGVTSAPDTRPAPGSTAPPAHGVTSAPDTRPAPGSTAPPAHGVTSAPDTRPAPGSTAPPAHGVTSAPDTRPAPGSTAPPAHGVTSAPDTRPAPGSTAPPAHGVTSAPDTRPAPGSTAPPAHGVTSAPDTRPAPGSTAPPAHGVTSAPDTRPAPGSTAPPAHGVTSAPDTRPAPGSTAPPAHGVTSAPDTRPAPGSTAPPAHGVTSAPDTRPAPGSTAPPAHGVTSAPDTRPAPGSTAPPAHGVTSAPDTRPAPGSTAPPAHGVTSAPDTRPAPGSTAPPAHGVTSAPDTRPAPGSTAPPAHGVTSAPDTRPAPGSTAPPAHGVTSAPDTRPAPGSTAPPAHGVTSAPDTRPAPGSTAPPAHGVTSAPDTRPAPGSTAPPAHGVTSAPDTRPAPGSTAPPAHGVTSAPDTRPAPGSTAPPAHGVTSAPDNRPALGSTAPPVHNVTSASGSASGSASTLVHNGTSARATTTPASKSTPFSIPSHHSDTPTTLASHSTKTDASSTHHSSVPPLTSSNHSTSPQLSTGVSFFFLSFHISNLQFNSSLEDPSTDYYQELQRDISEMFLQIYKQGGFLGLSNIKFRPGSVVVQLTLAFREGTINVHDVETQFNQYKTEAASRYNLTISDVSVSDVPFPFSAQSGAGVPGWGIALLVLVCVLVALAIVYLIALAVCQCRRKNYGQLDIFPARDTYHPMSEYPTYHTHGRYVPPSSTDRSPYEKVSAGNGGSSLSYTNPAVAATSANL

Molecular target: N-terminal fragment of MUC1 (388 amino acid residues long at the N-terminus) (human (human cervical cancer cell line SiHa)) (UniProt P15941)
Assay: Western blotting of SiHa cell extracts

B1: anti-MUC1 monoclonal antibody (antibody, V domains shown)
VH: EVKLEESGGGLVQPGGSMKLSCVASGFSFSDYWMNWVRQSPDKGLEWISDIRLKSYNYATHYAESVKGRFTISRDDSKSGVYLQMNNLRAEDTGLYYCTFGNSFAYWGQGTLVTVSA
VL: QAVVTQESALTTSPGETVTLTCRSSTGAVTTSNYANWVQEKPDHLFTGLIGGTNNRAPGVPARFSGSLIGDKAALTITGAQTEDEAIYFCALWYSNHWVFGGGTKLTVLG
notes: also called MUC1 antibody
- binding: binds
